Taken from: PubChem BioAssay AID1259254 (NCATS, 2017)

Purpose: 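Genome-wide screen for genes that prevent DNA re-replication in cancer cells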 (primary screen)
System: human HCT116 colorectal cancer cells
Knock-down reagent: single siRNA against human genes
Duration: 3 days
Measured: 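Nuclei stained with Hoechst and imaged; cell-cycle phase assigned by DNA content; G2 share scaled per plate, non-targeting siRNA 0%, GMNN siRNA 100%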
Reading the numbers: G2 robust z-score and G2 cells, % of GMNN control: higher = more G2 cells, more excess DNA replication
Rule for the call: 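An siRNA counts as active if its G2 robust z-score lies at least 5 MADs above the screen median; here such calls match roughly 38% of GMNN control or more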
This is an unselected part of about 59,000 deposited reagents. In the full data, about 1,550 (2.6%) are marked active. 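G2 share is only a proxy for re-replication; each gene was hit by three separate siRNAs, and active genes were retested.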 Unmarked entries are inactive. Reagents against one gene are numbered here. Further read-outs or replicates are left out here. No sequences are given here. Not stated in the record: the amount of reagent.

| Target gene | siRNA no. | G2 robust z-score | G2 cells, % of GMNN control |
| --- | --- | --- | --- |
| ODF4 | 1 | 0.279 | 4.93 |
| ODF4 | 2 | 1.34 | 12.4 |
| ODF4 | 3 | 2.42 | 20 |
| OR2A7 | 1 | 1.72 | 15 |
| OR2A7 | 2 | 0.885 | 9.19 |
| OR2A7 | 3 | 0.862 | 9.03 |
| TUT7 | 1 | 1.21 | 11.5 |
| TUT7 | 2 | 1.83 | 15.8 |
| TUT7 | 3 | 0.53 | 6.7 |
| FAM9C | 1 | -0.241 | 1.27 |
| FAM9C | 2 | -0.37 | 0.367 |
| FAM9C | 3 | -0.212 | 1.48 |
| HK1 | 1 | -0.939 | -3.64 |
| HK1 | 2 | 0.519 | 6.62 |
| HK1 | 3 | -0.547 | -0.884 |

Next part, starting with the last 3 of the part before.
| Target gene | siRNA no. | G2 robust z-score | G2 cells, % of GMNN control |
| --- | --- | --- | --- |
| HK1 | 1 | -0.939 | -3.64 |
| HK1 | 2 | 0.519 | 6.62 |
| HK1 | 3 | -0.547 | -0.884 |
| API5 | 1 | -1.07 | -4.53 |
| API5 | 2 | -1.04 | -4.32 |
| API5 | 3 | 0.0959 | 3.64 |
| MED22 | 1 | 1.91 | 16.4 |
| MED22 | 2 | 1.94 | 16.6 |
| MED22 | 3 | -0.678 | -1.8 |
| FBXL4 | 1 | -0.544 | -0.861 |
| FBXL4 | 2 | -0.0674 | 2.49 |
| FBXL4 | 3 | 0.12 | 3.81 |
| BLTP1 | 1 | -0.852 | -3.03 |
| BLTP1 | 2 | -0.784 | -2.55 |
| BLTP1 | 3 | -0.401 | 0.143 |
| TLR9 | 1 | 5.81 (active) | 43.8 |
| TLR9 | 2 | 3.21 | 25.6 |
| TLR9 | 3 | 1.84 | 15.9 |
